Patent US11559517B2, “Promotion of epithelial repair” (Telethon Kids Institute, priority 2018, dated 2023)
“Also recorded” adds a separate entry of the source. For at least one compound, name, drawing or mass did not settle the structure. Some of these results come from one statement about several compounds together.

Tests used:
Type in all cases: cell-based, human
[1] = tested on: pAEC from asthmatic children; assay: Scratch wound repair assay (wound closure), pAEC from asthmatic children; conditions: for accelerated repair compared to DMSO vehicle: 10 μM, 48 hours treatment post wounding; for wound closure (effect in words): 10 μM treatment
Description: (§1) Two in vitro scratch wound models were used. […] Wound closure was calculated through image analysis by the accompanying live-cell imaging system (Essen Bioscience, Ann Arbor, Mich., USA).
(§2) To assess in vitro wound repair kinetics, linear scratch wounds were created using a commercial monolayer wounding kit. Once confluent, cell cultures were placed in starvation media (BEGM™ without epidermal growth factor) for about 24 hours prior to wounding. At the time of wounding, cell cultures were treated with compound dilution (10 μM), DMSO vehicle (0.05% v/v) or untreated. Wound closure rates were calculated through image analysis by the accompanying live-cell imaging system (Essen Bioscience, Ann Arbor, Mich., USA).

[2] = tested on: pAEC from non-asthmatic children; assay: Scratch wound repair assay (wound closure), pAEC from non-asthmatic children; conditions: for increased wound closure compared to DMSO vehicle: 10 μM, 48 hours post wounding
Description: as §1, §2

[3] = tested on: integrin β1; assay: On-Cell Western assay of integrin β1 cell membrane expression, pAEC from non-asthmatic children; conditions: Wortmannin, concentration-dependent; 12 h and 48 h post treatment
Description: (§3) Cells were plated at 1.2×10^5 cells/cm^2 onto 96-well plates precoated with fibronectin ([…]) and maintained as described earlier. Briefly, following relevant treatments and controls, confluent cell monolayers were fixed with 10% (v/v) NBF for 20 minutes at room temperature and then either permeabilized with 0.1% (v/v) Triton X-100 or incubated with PBS for 25 minutes. Cells were blocked for 90 min at room temperature with the Odyssey® blocking buffer (PBS) (LI-COR Biosciences). Cells were then stained with rabbit anti-human integrin α5 (1:100; clone EPR7854, Abcam), mouse anti-human integrin β1 (1:1000; clone P5D2, Abcam), rabbit anti-human phospho-Akt (Ser473) (1:100; clone D9E, Abcam) or mouse anti-human total Akt (pan) (1:100; clone 40D4, Abcam) for 24 hours at 4° C. Antibody binding was determined using IRDye 800 CW-conjugated goat anti-rabbit IgG (1:800; 925-32211, LI-COR Biosciences) and goat anti-mouse IgG (1:800; 925-32210, LI-COR Biosciences), as well as DRAQ5 (1:10000; DR50200, BioStatus Limited) and Sapphire700 (1:1000; 928-40022, LI-COR Biosciences) for cell number normalization, for 1 hour at RT with gentle shaking in the dark. Specific antibody staining for protein expression was then immediately visualized and quantified using an infrared imaging system (LI-COR Biosciences). […]

[4] = tested on: leading edge pAEC from non-asthmatic children; assay: Leading edge cell tracking after scratch wounding, pAEC from non-asthmatic children; conditions: Wortmannin 0.01-10 μM, MK2206 0.01-5 μM
Description: Manual Tracking, an ImageJ2 plugin publicly available was utilized for its capacity to manually track cells in two dimensions, the x and y planes. […] The selected cells were tracked over the first 12 h post wounding, where this procedure generated x and y coordinates for the position of the nucleus of each tracked cell at each time point. The x,y coordinates of the tracked cells were exported in a tab delimited format and all tracks were transformed to migrate up towards the y-axis. Graphical representation and analysis of the cell migration parameters was performed using the Chemotaxis and Migration Tool 2.0 (Ibidi®, Martinsried, Bayern, Germany). […] Migration parameters of cell tracks were then quantified including; (1) distance migrated (μm) which represented the displacement of a cell from the start to its endpoint, (2) velocity (μm/min), which is a function of displacement overtime, and (3) directionality (AU), which represents a measurement of the directness or straightness of a cell trajectory and was calculated as a ratio of the cell displacement over the accumulated distance migrated. […] Since directionality is not a direct measure of chemotaxis, the determined forward migration index (FMI) (AU) was then utilized to represent the efficiency of the leading edge cells to migrate towards the center of the wounded area. […]

[5] = tested on: integrin α5; assay: On-Cell Western assay of integrin α5 cell membrane expression, pAEC from non-asthmatic children; conditions: Wortmannin, concentration-dependent; 12 h and 48 h post treatment
Description: as §3

[6] = tested on: Akt (serine residue 473); assay: In-Cell Western assay of Akt phosphorylation, pAEC from non-asthmatic children
Description: (§4) Cells were plated at 1.2×10^5 cells/cm^2 onto 96-well plates precoated with fibronectin ([…]) and maintained as described earlier. Briefly, following relevant treatments and controls, confluent cell monolayers were fixed with 10% (v/v) NBF for 20 minutes at room temperature and then either permeabilized with 0.1% (v/v) Triton X-100 or incubated with PBS for 25 minutes. Cells were blocked for 90 min at room temperature with the Odyssey® blocking buffer (PBS) (LI-COR Biosciences). Cells were then stained with rabbit anti-human integrin α5 (1:100; clone EPR7854, Abcam), mouse anti-human integrin β1 (1:1000; clone P5D2, Abcam), rabbit anti-human phospho-Akt (Ser473) (1:100; clone D9E, Abcam) or mouse anti-human total Akt (pan) (1:100; clone 40D4, Abcam) for 24 hours at 4° C. Antibody binding was determined using IRDye 800 CW-conjugated goat anti-rabbit IgG (1:800; 925-32211, LI-COR Biosciences) and goat anti-mouse IgG (1:800; 925-32210, LI-COR Biosciences), as well as DRAQ5 (1:10000; DR50200, BioStatus Limited) and Sapphire700 (1:1000; 928-40022, LI-COR Biosciences) for cell number normalization, for 1 hour at RT with gentle shaking in the dark. Specific antibody staining for protein expression was then immediately visualized and quantified using an infrared imaging system (LI-COR Biosciences).

[7] = tested on: pAEC from asthmatic children; assay: Scratch wound repair assay (wound closure), pAEC from asthmatic children; conditions: 0.01-10 μM at time of scratch wounding
[8] = tested on: integrin β1; assay: On-Cell Western assay of integrin β1 cell membrane expression, pAEC from asthmatic children; conditions: 0.01-10 μM, concentration-dependent, 12 h and 48 h
Description: as §4
(§5) After this, cells were washed in 1× phosphate-buffered saline (PBS) and incubated with IRDye-conjugated secondary antibody (1:800 goat anti-rabbit and goat anti-mouse IgG, LI-COR Biosciences, Lincoln, Nebr., USA) containing DRAQ5 (1:10000, BioStatus Limited, Shepshed, United Kingdom) and Sapphire700 (1:1000, LI-COR Biosciences, Lincoln, Nebr., USA) for 1 hour at RT with gentle shaking in a dark room. Cells were then washed for an additional five times in PBS. Specific antibody staining for protein expression was then immediately visualized using an infrared imaging system (LI-COR Biosciences, Lincoln, Nebr., USA

[9] = tested on: Akt (serine residue 473); assay: In-Cell Western assay of Akt phosphorylation, pAEC from asthmatic children; conditions: 0.01-10 μM, 12 h and 48 h post treatment
Description: as §4

[10] = tested on: leading edge pAEC from asthmatic children; assay: Leading edge cell tracking after scratch wounding, pAEC from asthmatic children; conditions: 0.01-10 μM
Description: Manual Tracking, an ImageJ2 plugin publicly available was utilized for its capacity to manually track cells in two dimensions, the x and y planes. […] The selected cells were tracked over the first 12 h post wounding, where this procedure generated x and y coordinates for the position of the nucleus of each tracked cell at each time point. The x,y coordinates of the tracked cells were exported in a tab delimited format and all tracks were transformed to migrate up towards the y-axis. Graphical representation and analysis of the cell migration parameters was performed using the Chemotaxis and Migration Tool 2.0 (Ibidi®, Martinsried, Bayern, Germany). The x,y coordinates were imported into the Chemotaxis and Migration Tool 2.0, where the x,y coordinates of cell tracks were transformed to a common origin (0,0) for downstream data analysis and visualization purposes. […] In addition, circular plots were used to indicate the directional frequency of tracks at each angle position, with the maxima of counts, marked in red. Migration parameters of cell tracks were then quantified including; (1) distance migrated (μm) which represented the displacement of a cell from the start to its endpoint, (2) velocity (μm/min), which is a function of displacement overtime, and (3) directionality (AU), which represents a measurement of the directness or straightness of a cell trajectory and was calculated as a ratio of the cell displacement over the accumulated distance migrated. A ratio of 1 indicated absolute directional cell migration and a ratio of 0 indicated totally random migration. Since directionality is not a direct measure of chemotaxis, the determined forward migration index (FMI) (AU) was then utilized to represent the efficiency of the leading edge cells to migrate towards the center of the wounded area. Since leading edge cells were expected to move forward towards the center of the wound, FMI along the y-axis (yFMI) was reported. yFMI was calculated as a ratio of the y-coordinate at the cell endpoint over displacement, where a high determined value indicated a high efficiency of leading edge cells to respond to the generated wound.

[11] = tested on: integrin α5; assay: On-Cell Western assay of integrin α5 cell membrane expression, pAEC from asthmatic children; conditions: 0.01-10 μM, concentration-dependent, 12 h and 48 h
Description: as §4, §5

Cc1onc(-c2ccccc2)c1-c1ccc(S(N)(=O)=O)cc1 [Compound C21, Valdecoxib]
accelerated repair compared to DMSO vehicle [1]: at least 140%

COC[C@H]1OC(=O)c2coc3c2[C@@]1(C)C1=C(C3=O)[C@@H]2CCC(=O)[C@@]2(C)C[C@H]1OC(C)=O [Wortmannin]
wound closure rates (effect in words) ([2]; treated at time of scratch wounding, Wortmannin 0.01-10 μM, MK2206 0.01-5 μM): dose-dependent attenuation of wound closure rates; also recorded: concentration-dependent reduction in wound closure rates | integrin β1 cell membrane expression [3]: significant reduction of integrin α5β1 protein expression | leading edge cell migration (distance migrated, velocity, directionality, yFMI) [4]: dose-dependent attenuation; also recorded: inhibited distance migrated, velocity, directionality and centrality (yFMI) | integrin α5 cell membrane expression [5]: significant reduction of integrin α5β1 protein expression | activated levels of Akt ([6]; Wortmannin, 1 h to at least 24 h treatment): significantly reduced | activation/phosphorylation of Akt (Ser473) ([6]; concentration series (Wortmannin 0.01-10 μM, MK2206 0.01-5 μM), 12 h and 48 h post treatment): inhibited activation of PI3K and phosphorylation of its downstream effector, Akt

COc1ccc(-c2cc(C(F)F)nn2-c2ccc(S(N)(=O)=O)cc2)cc1F [Compound C9, Deracoxib]
accelerated repair compared to DMSO vehicle [1]: at least 140%

CN1C(C(=O)Nc2ccccn2)=C(O)c2ccccc2S1(=O)=O [Compound C13, Piroxicam]
increased wound closure compared to DMSO vehicle [2]: 10-20%

Cc1ccc(-c2cc(C(F)(F)F)nn2-c2ccc(S(N)(=O)=O)cc2)cc1 [Compound C3, Celecoxib]
wound closure (effect in words) ([1]; listed as Celecoxib): complete repair | wound closure (effect in words) ([1]; listed as celecoxib): full wound closure | accelerated repair compared to DMSO vehicle [1]: at least 140% | increased wound closure compared to DMSO vehicle [2]: at least 20% | wound closure rates (effect in words) ([7]; listed as Celecoxib): increase in wound closure rates | wound closure rates (effect in words) ([7]; listed as celecoxib): significant enhancement of airway epithelial repair in a concentration-dependent manner | integrin β1 cell membrane expression ([8]; listed as Celecoxib): Significant activation | integrin β1 cell membrane expression ([8]; listed as celecoxib): upregulate cell membrane expression of integrin α5β1 protein | phosphorylation of Akt (Ser473) / PI3K/Akt signaling ([9]; listed as Celecoxib): resulted in phosphorylation of Akt | phosphorylation of Akt (Ser473) / PI3K/Akt signaling ([9]; listed as celecoxib): activated PI3K/Akt signaling | leading edge cell migration (distance migrated, velocity, directionality, yFMI) ([10]; listed as Celecoxib): stimulated distance migrated, velocity, directionality and centrality (yFMI) | leading edge cell migration (distance migrated, velocity, directionality, yFMI) ([10]; listed as celecoxib): enhancing leading edge cell migration | integrin α5 cell membrane expression ([11]; listed as Celecoxib): Significant activation | integrin α5 cell membrane expression ([11]; listed as celecoxib): upregulate cell membrane expression of integrin α5β1 protein

NCC(=O)Nc1ccc(-n2nc(C(F)(F)F)cc2-c2ccc3c(ccc4ccccc43)c2)cc1 [Compound C16, 2-Amino-N-[4-[5-(2-phenanthrenyl)-3-(trifluoromethyl)-1H-pyrazol-1-yl]phenyl]acetamide]
accelerated repair compared to DMSO vehicle [1]: at least 140% | increased wound closure compared to DMSO vehicle [2]: at least 20%

CS(=O)(=O)c1ccc(C2=C(c3ccccc3)C(=O)OC2)cc1 [Compound C20, Rofecoxib]
accelerated repair compared to DMSO vehicle [1]: at least 140%
